According to the supplement of paper PMC7661543:
Differences between knockout arms are mostly noise.

Tested on: HCC-38
Assay: relative cell number vs DMSO control (72 h) (% of DMSO); higher = less growth inhibition (more cells)
Procedure: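 QMAP-Seq: a pool of 5 breast cancer cell lines (ZR-75-1, SKBR3, HCC-38, MDA-MB-231, BT-20), each carrying 12 doxycycline-inducible Cas9 sgRNA perturbations (11 knockouts plus non-targeting sgNT), was treated with compounds for 72 h at four 10-fold doses (10 nM-10 uM or 1 nM-1 uM range). Barcodes were amplified and sequenced, and cell number was interpolated from 293T spike-in standard curves. The result is expressed as % of the median of DMSO wells. Two biological replicates.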

COc1nc(N)nc2c1ncn2[C@@H]1O[C@H](CO)[C@@H](O)[C@@H]1O [Nelarabine]
Conditions	relative cell number
sgRNA knockout: sgATF3, 10 nM	123
sgRNA knockout: sgATF3, 100 nM	110
sgRNA knockout: sgATF3, 1000 nM	99.9
sgRNA knockout: sgATF3, 10000 nM	107
sgRNA knockout: sgATF4, 10 nM	125
sgRNA knockout: sgATF4, 100 nM	97.6
sgRNA knockout: sgATF4, 1000 nM	87.9
sgRNA knockout: sgATF4, 10000 nM	110
sgRNA knockout: sgATF6, 10 nM	117
sgRNA knockout: sgATF6, 100 nM	99.1
sgRNA knockout: sgATF6, 1000 nM	119.6
sgRNA knockout: sgATF6, 10000 nM	117
sgRNA knockout: sgATG7, 10 nM	101.2
sgRNA knockout: sgATG7, 100 nM	104.6
sgRNA knockout: sgATG7, 1000 nM	104
sgRNA knockout: sgATG7, 10000 nM	99.3
sgRNA knockout: sgERN1, 10 nM	110
sgRNA knockout: sgERN1, 100 nM	99.3
sgRNA knockout: sgERN1, 1000 nM	90.7
sgRNA knockout: sgERN1, 10000 nM	104
sgRNA knockout: sgHSF1, 10 nM	109
sgRNA knockout: sgHSF1, 100 nM	104
sgRNA knockout: sgHSF1, 1000 nM	91.6
sgRNA knockout: sgHSF1, 10000 nM	99.3
sgRNA knockout: sgHSF2, 10 nM	115
sgRNA knockout: sgHSF2, 100 nM	111
sgRNA knockout: sgHSF2, 1000 nM	101
sgRNA knockout: sgHSF2, 10000 nM	108.38
sgRNA knockout: sgKEAP1, 10 nM	96.6
sgRNA knockout: sgKEAP1, 100 nM	111
sgRNA knockout: sgKEAP1, 1000 nM	104.1
sgRNA knockout: sgKEAP1, 10000 nM	118
sgRNA knockout: sgNFE2L2, 10 nM	113
sgRNA knockout: sgNFE2L2, 100 nM	98.9
sgRNA knockout: sgNFE2L2, 1000 nM	88.7
sgRNA knockout: sgNFE2L2, 10000 nM	108.6
sgRNA knockout: sgSLC35F2, 10 nM	109
sgRNA knockout: sgSLC35F2, 100 nM	108
sgRNA knockout: sgSLC35F2, 1000 nM	97.9
sgRNA knockout: sgSLC35F2, 10000 nM	105.4
sgRNA knockout: sgXBP1, 10 nM	113
sgRNA knockout: sgXBP1, 100 nM	97.6
sgRNA knockout: sgXBP1, 1000 nM	95.8
sgRNA knockout: sgXBP1, 10000 nM	109

Cc1ncc([N+](=O)[O-])n1CC(O)CCl (stereo not drawn) [Ornidazole]
Conditions	relative cell number
sgRNA knockout: sgATF3, 10 nM	92
sgRNA knockout: sgATF3, 100 nM	92
sgRNA knockout: sgATF3, 1000 nM	105.5
sgRNA knockout: sgATF3, 10000 nM	90.9
sgRNA knockout: sgATF4, 10 nM	91.8
sgRNA knockout: sgATF4, 100 nM	91
sgRNA knockout: sgATF4, 1000 nM	108
sgRNA knockout: sgATF4, 10000 nM	90.65
sgRNA knockout: sgATF6, 10 nM	95.9
sgRNA knockout: sgATF6, 100 nM	114
sgRNA knockout: sgATF6, 1000 nM	120
sgRNA knockout: sgATF6, 10000 nM	113
sgRNA knockout: sgATG7, 10 nM	92.6
sgRNA knockout: sgATG7, 100 nM	91.6
sgRNA knockout: sgATG7, 1000 nM	121
sgRNA knockout: sgATG7, 10000 nM	92.3
sgRNA knockout: sgERN1, 10 nM	81.6
sgRNA knockout: sgERN1, 100 nM	100
sgRNA knockout: sgERN1, 1000 nM	114
sgRNA knockout: sgERN1, 10000 nM	89.6
sgRNA knockout: sgHSF1, 10 nM	96.9
sgRNA knockout: sgHSF1, 100 nM	82.6
sgRNA knockout: sgHSF1, 1000 nM	103
sgRNA knockout: sgHSF1, 10000 nM	105
sgRNA knockout: sgHSF2, 10 nM	92.8
sgRNA knockout: sgHSF2, 100 nM	106
sgRNA knockout: sgHSF2, 1000 nM	125
sgRNA knockout: sgHSF2, 10000 nM	101
sgRNA knockout: sgKEAP1, 10 nM	90
sgRNA knockout: sgKEAP1, 100 nM	105
sgRNA knockout: sgKEAP1, 1000 nM	97.8
sgRNA knockout: sgKEAP1, 10000 nM	104
sgRNA knockout: sgNFE2L2, 10 nM	82.4
sgRNA knockout: sgNFE2L2, 100 nM	96.8
sgRNA knockout: sgNFE2L2, 1000 nM	110
sgRNA knockout: sgNFE2L2, 10000 nM	84.7
sgRNA knockout: sgSLC35F2, 10 nM	88.499
sgRNA knockout: sgSLC35F2, 100 nM	100
sgRNA knockout: sgSLC35F2, 1000 nM	110
sgRNA knockout: sgSLC35F2, 10000 nM	96.6
sgRNA knockout: sgXBP1, 10 nM	86.1
sgRNA knockout: sgXBP1, 100 nM	95
sgRNA knockout: sgXBP1, 1000 nM	115
sgRNA knockout: sgXBP1, 10000 nM	85.2
